Results are given in words; binding and its absence hold for the method and conditions named. Some binding calls cover weakened binding; strength is not graded here. For part of these data: Tags and fused reporters may be left off the sequences shown. Each block holds one binder with its values, some of them ahead of it.
Key:
[1] = molecular target: Recombinant human IL-33 (construct not named in the example) (human) (UniProt O95760); assay: Octet RED 384, scFv periprep on Ni-NTA sensor, IL-33 200 nM
[2] = molecular target: H338L293 (SEQ ID NOs 182 and 187); assay: Biacore T100, IgG captured on Protein G', peptide as analyte
[3] = molecular target: T1, Human IL-33 Flag®His (human); assay: HTRF: IL-33FH binding to biotinylated ST2-Fc, IgG titrated; directly competitive (B) or after 18 h pre-incubation of IgG with IL-33 (C)
T1 sequence: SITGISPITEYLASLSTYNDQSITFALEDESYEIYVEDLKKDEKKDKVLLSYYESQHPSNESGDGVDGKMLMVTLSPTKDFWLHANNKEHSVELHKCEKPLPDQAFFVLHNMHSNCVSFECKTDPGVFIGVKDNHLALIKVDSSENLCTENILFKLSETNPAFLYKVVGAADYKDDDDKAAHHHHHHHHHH

[4] = molecular target: T1, Human IL-33 Flag®His (human); assay: size exclusion chromatography of IL-33:IgG complexes

binding [1]: binds
B1: IL330428 (antibody, V domains shown)
VH: QVQLVQSGAETKKSGASVKVSCKTSGYTFDNFGISWVRQAPGQGLEWIGWISIYNGNTDYAQNLRGRLTLTTDTSTSTVHMELKSLRSDDTAIYYCARGGGISSSWTPDYYFDYWGQGTLVTVSS
VL: SSELTQDPAVSVASGQTVRLTCQGDTLRNYYSNWYQQRPGQAPVLVLYGNNRRPPGIPARFSGSHSGNTGSLIITGAQAEDEAEYHCAARDSSGDHVVFGGGTKVTVL

binding [2]: binds
Binder: MLMVTLSPTKDFWLHANNKEHSVELHK [IL-33 tryptic epitope peptide (full length synthetic epitope peptide)]

binding [2]: binds
Binder: LSPTKDFWLHANNKEHSVELHK [Truncated IL-33 epitope peptide]

binding [1]: binds
B2: IL330425 (antibody, V domains shown)
VH: QVQLVQSGGGVVQPGRSLRLSCAASGFTFSEYSMHWVRQAPGKGLEYVSTISSNGAGTYYADSVKGRVTISRDNSKNTLYVQMSSLRPEDTAVYYCVKSLTKYPYGNYFDYWGRGTTVTVSS
VL: SSELTQDPAVSVALGQTVRITCQGDSLRSYYASWYQQKPGQAPVLVIYGKNNRPSGIPDRFSGSSSGNTASLTITRAQAEDEADYYCNSRDSSGNHVVFGGGTKLTVL

binding [3]: binds | binding [4]: binds
B3: H338L293 (SEQ ID NOs 182 and 187) (antibody, V domains shown)
VH: EVQLLESGGGLVQPGGSLRLSCAASGFTFSSYAMSWVRQAPGKGLEWVSAISPREGWQYYADSVKGRFTISRDNSKNTLYLQMNSLRAEDTAVYYCVRVVAGYFDSWGRGTLVTVSS
VL: SYELMQPPSVSVSPGQTARITCSGDALPKQYAHWYQQKPGQAPVLVIYKDTERPSGIPERFSGSSSGTTVTLTISGVQAEDEADYYCMSSDPSGASRVFGGGTKLTVL

— US20200353078A1
